Data on 59 molecules can be found in PubChem BioAssay AID2685 (National Center for Advancing Translational Sciences (NCATS), 2010).

What is called AC50 is the concentration giving half of the maximal activity seen.

Several values for one entry are separate records, joined by “and”; a condition that tells them apart may be missing. Equal entries are not always repeated. Some of the results follow. These are further read-outs of the screen, such as a control signal, another cell line or another target. No call is given for them. Most of these compounds were active or inconclusive in the main read-out, so they are no random draw. The note in brackets gives the kind of curve behind each potency; many fits are weak.

This assay in a line: qHTS Assay for Lipid Storage Modulators in Drosophila S3 Cells.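 On cell number change: cells counted by Cell Tracker Red CMTPX staining in the red channel.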 As to conditions: BODIPY lipid droplet fluorescence, 18-24 h; for cell number change: measured here: cell count max response, cells fed with added oleic acid. The procedure, abridged:
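Laser-scanning cytometry quantifies lipid droplet accumulation (500–530 nm total intensity; droplet/cell object ratio) in oleic acid-fed (400 uM added) Drosophila S3 cells treated with a concentration series. 20 uM Triacsin C defined 100% inhibition.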
A general note: Quantitative high-throughput screening tests each substance at several concentrations.

Setting [1] is: measured here: lipid fluorescence (Fed channel) AC50, cells fed with added oleic acid.
Where [2] appears, read: measured here: cell number channel AC50, cells fed with added oleic acid.

On to `CCOc1ccc(-c2nnn(CC(=O)Nc3ccccc3OC)n2)cc1OCC`, for which the cell number change is -20%. Besides, under setting [1], the AC50 was 0.731 µM [rising, single point].

For the molecule `COc1cc(NC(=O)c2cccc([N+](=O)[O-])c2)ccc1NC(=O)c1cc2ccccc2o1`, the cell number change is -9.37%. Further, the half-maximal activity concentration (AC50) under setting [1] is 0.00411 µM [falling, full curve, poor fit].

As to `CC1(c2ccc(Cl)cc2)NC(=O)N(CC(=O)N2CCN(S(=O)(=O)c3ccccc3)CC2)C1=O` (stereo not drawn), the half-maximal activity concentration (AC50) under setting [2] is 0.092 µM [falling, full curve, poor fit].

Take `O=C(COC(=O)CCSc1ccc(Cl)cc1)NCc1ccccc1Cl`: the cell number change was -7.73%. For the same molecule, under setting [1], the AC50 was 0.00411 µM [falling, full curve, poor fit].

As for `Cc1ccc(NC(=O)C2CC(O)CN2C(=O)OCc2ccccc2)c(C)c1` (stereo not drawn), the cell number change amounted to 31%. Under setting [2], the half-maximal activity concentration (AC50) was 29.1 µM [rising, single point].

Regarding `O=C(NCC1CCCO1)c1cc(C(=O)C2CC2)c[nH]1` (stereo not drawn), the cell number change came to 15%. Further, the half-maximal activity concentration (AC50) under setting [1] was 2.59 µM [falling, single point].

Turning to `O=C(Cc1ccccc1)Nc1ccc(Br)c(Cl)c1`, the cell number change was -31.3%. Also, under setting [2], the half-maximal activity concentration (AC50) is 32.6 µM [falling, single point]. Also, the half-maximal activity concentration (AC50) under setting [1] was 6.51 µM [rising, single point].

In the case of `COCCn1c(-c2cccs2)csc1=Nc1cccnc1`, the AC50 by setting is: under setting [2], 6.51 µM [rising, single point]; under setting [1], 3.66 µM [rising, single point].

In the case of `O=C(Nc1ncccn1)c1cccs1`, the cell number change was found to be 9.71%. In addition, the AC50 under setting [1] is 6.51 µM [falling, single point].

As for `O=C(NCCCNC(=O)c1ccccn1)c1ccc(Br)cc1`, the half-maximal activity concentration (AC50) under setting [2] is 2.31 µM [falling, partial curve, poor fit].

`COc1cccc(NC(=O)Nc2cccn(Cc3ccc(C)cc3)c2=O)c1`: the cell number change is -34.4%. Besides, the half-maximal activity concentration (AC50) under setting [2] was 16.4 µM [falling, single point].

As for `COc1ccc(CCNS(=O)(=O)c2cc3c4c(c2)CCN4C(=O)CC3)cc1OC`, the cell number change is -99.2%. Besides, under setting [2], the AC50 is 18.4 µM [falling, single point]. The AC50 under setting [1] is 3.66 µM [rising, partial curve].

`CCC(C)(C)NC(=O)CN(Cc1ccccc1)C(=O)CCC(=O)Nc1nccs1`: under setting [1], the concentration at half-maximal activity (AC50) was 29.1 µM [rising, single point].

As to `Cc1ccc(Cn2c(=O)c3c(nc4n3CCCN4Cc3ccccc3)n(C)c2=O)cc1`, the cell number change is -3.83%.

In the case of `CCCc1cc(=O)oc2cc(OCC(=O)NCc3ccccn3)ccc12`, the cell number change is -51%. In addition, under setting [2], the concentration at half-maximal activity (AC50) was 0.0058 µM [falling, full curve, poor fit]. For the same molecule, the AC50 under setting [1] was 29.1 µM [falling, single point].

Take `CCCc1cc(=O)[nH]c(SCCOc2ccc(OCC)cc2)n1`: the cell number change is -84.5%. Under setting [2], the concentration at half-maximal activity (AC50) was 23.1 µM [falling, single point].

Turning to `COc1cc(C(=O)NCC(=O)NCCSc2ccc(Br)cc2)cc(OC)c1OC`, the cell number change was -44%. The AC50 under setting [2] was 20.6 µM [falling, partial curve, poor fit]. Under setting [1], the AC50 was 25.9 µM [falling, partial curve, poor fit].

Consider `Cc1oc2c(C)c3oc(=O)c(CCC(=O)N4C[C@H]5C[C@@H](C4)c4cccc(=O)n4C5)c(C)c3cc2c1C`, for which the cell number change turned out to be 15.9%.

`COc1ccc(C(=O)NCc2ccc(S(N)(=O)=O)cc2)cc1[N+](=O)[O-]`: the cell number change amounted to 42.1%.

For `CC1(NC(=O)C2CCN(C(=O)Nc3ccccc3)CC2)CCS(=O)(=O)C1` (stereo not drawn), the cell number change is 7.67%.

For `COc1cc(OC)cc(C(=O)N[C@H](C(=O)Nc2ccc3c(c2)OCO3)C(C)C)c1`, the AC50 under setting [1] is 0.146 µM [rising, single point].

With `CC(=O)c1c(C)[nH]c(C(=O)N2CCCC(C)C2)c1C` (stereo not drawn), the cell number change is -4.26%.

In the case of `COC(=O)CSc1cc([N+](=O)[O-])cc2c1c(C1OCCO1)nn2-c1ccccc1`, the cell number change came to 13.5%. In addition, the AC50 under setting [1] was 2.06 µM [rising, single point].

Consider `Cc1cccc(OCCC(=O)OC(C)C(=O)Nc2ccc(Cl)cn2)c1` (stereo not drawn), for which the cell number change is -5.87%. Also, the AC50 under setting [1] was 3.66 µM [rising, full curve].

As for `COc1ccc(-c2cc(C(=O)OCC(=O)NC3CC3)c3ccccc3n2)cc1`, the cell number change amounted to 3.53%.

Turning to `O=[N+]([O-])c1ccc(/C=N/Nc2nc(NCc3ccccc3)nc(N3CCOCC3)n2)cc1`, the AC50 under setting [2] was 0.92 µM [rising, full curve] and the half-maximal activity concentration (AC50) under setting [1] was 2.06 µM [rising, partial curve].

As to `O=C(O)C1CC=CCC1C(=O)NCCCCc1ccccc1` (stereo not drawn), the cell number change is 8.22%. Besides, the AC50 under setting [1] was 6.31 µM [falling, single point].

For the molecule `COc1ccc([C@H]2CC(=O)C=C(C#CC(C)(C)C)C2)cc1`, the cell number change is -25.8%. Further, under setting [1], the AC50 is 13 µM [rising, partial curve].

For `CC(C)=C1C2C=CC1C(C(=O)Nc1cccc(C)c1)C2C(=O)O` (stereo not drawn), the cell number change was -3.02%. Moreover, the concentration at half-maximal activity (AC50) under setting [1] was 0.00517 µM [falling, full curve, poor fit].

In the case of `CC(C)C(NS(=O)(=O)c1cccc2nsnc12)C(=O)N1CCc2ccccc2C1` (stereo not drawn), the cell number change was -19.2%. Besides, the AC50 under setting [1] was 14.6 µM [falling, partial curve, poor fit].

On to `COc1ccc(OCCn2cnc3ccccc32)cc1`, for which the cell number change is 6.35%. The concentration at half-maximal activity (AC50) under setting [1] was 20.6 µM [falling, single point].

As to `COc1cccc(C(=O)Nc2ccccc2N2CCCC2)c1`, the cell number change was found to be 210%. Further, under setting [2], the AC50 was 18.4 µM [rising, single point]. Moreover, the AC50 under setting [1] was 3.26 µM [rising, single point].

Consider `CC1CCC(C(C)C)C(OC(=O)Cn2c(-c3ccccc3)[n+](C)c3ccccc32)C1` (stereo not drawn), for which the cell number change was -53.5% and -75.7%. Also, the concentration at half-maximal activity (AC50) under setting [2] is 5.8 µM [falling, full curve]. In addition, the AC50 under setting [1] was 4.61 µM [falling, full curve] and 5.8 µM [falling, full curve].

Consider `COc1cccc(NC(=O)c2cc([N+](=O)[O-])ccc2NC(=O)CNCC2CCCO2)c1` (stereo not drawn), for which the cell number change amounted to 44.4%. Moreover, the AC50 under setting [2] is 9.2 µM [rising, partial curve, poor fit].

With `CCCc1nc2oc3c(NCC4CCCO4)ncnc3c2c2c1COC(C)(C)C2` (stereo not drawn), the cell number change was -53.7%. The concentration at half-maximal activity (AC50) under setting [2] is 1.03 µM [falling, full curve]. In addition, under setting [1], the concentration at half-maximal activity (AC50) was 18.4 µM [falling, single point].

Regarding `c1ccc(N(c2ccccc2)c2nc(N3CCOCC3)nc(N3CCOCC3)n2)cc1`, the cell number change amounted to 60.3%. Also, the concentration at half-maximal activity (AC50) under setting [2] was 13 µM [rising, partial curve]. Moreover, the AC50 under setting [1] was 0.092 µM [falling, full curve, poor fit].

In the case of `Cc1ccc(N2CCN(/N=C/c3ccncc3)CC2)cc1`, the cell number change was -34%. Moreover, the concentration at half-maximal activity (AC50) under setting [2] is 16.4 µM [falling, single point].

Turning to `Cc1c(NC(=O)C(C)N2CC(C)OC(C)C2)c(=O)n(-c2ccccc2)n1C` (stereo not drawn), under setting [1], the concentration at half-maximal activity (AC50) was 5.17 µM [falling, full curve].

For `CC(=O)Nc1ccc(C(=O)COC(=O)c2ccco2)c(F)c1`, the cell number change is -14.5%. In addition, the AC50 under setting [1] was 29.1 µM [falling, single point].

Turning to `Cc1ccccc1-n1nc(-c2ccc(N)cc2)cc1N`, the AC50 under setting [2] is 2.91 µM [rising, single point] and the concentration at half-maximal activity (AC50) under setting [1] is 3.66 µM [rising, partial curve].

Consider `c1ccc2c(NC3C4CC5CC(C4)CC3C5)nc(N3CCOCC3)nc2c1` (stereo not drawn), for which the cell number change was -27.4%. The AC50 under setting [2] is 1.84 µM [falling, partial curve, poor fit]. Moreover, the AC50 under setting [1] is 0.164 µM [falling, full curve, poor fit].

Take `CC1=C(C(=O)OC(C)C)C(c2ccccc2)NC(=S)N1C` (stereo not drawn): the cell number change is -2.38%. Moreover, the half-maximal activity concentration (AC50) under setting [1] was 5.17 µM [rising, single point].

With `O=C(NC(Cc1c[nH]c2ccccc12)C(=O)O)c1cccs1` (stereo not drawn), the AC50 by setting is: under setting [2], 0.259 µM [falling, partial curve]; under setting [1], 6.51 µM [falling, single point].

As to `COC(=O)c1c(NC(C)=O)sc2c1CCCCC2`, the cell number change amounted to 2.83%. Further, under setting [1], the concentration at half-maximal activity (AC50) was 29.1 µM [rising, single point].

For `COCCn1c(C)cc(C2=NNC(=Nc3ccccc3)SC2)c1C`, the cell number change was determined as 13.5%. The concentration at half-maximal activity (AC50) under setting [1] was 32.6 µM [rising, single point].

For `CC(SCC(=O)NC(C)C1CC2CCC1C2)C(=O)O` (stereo not drawn), the cell number change was -66.7%. Moreover, under setting [2], the AC50 was 23.1 µM [falling, single point].

For `O=C(CSc1nc2c(c(=O)[nH]1)CCCC2)Nc1ccc(Cl)cc1F`, the cell number change was -8.19%. Besides, the concentration at half-maximal activity (AC50) under setting [1] was 29.1 µM [falling, single point].

As to `Cc1ccc(-c2ccc(/C=C(\C#N)C(N)=S)n2C)cc1`, the cell number change is -2.62%. Further, the AC50 under setting [1] is 0.00461 µM [falling, full curve, poor fit].

For `Cc1cc(/C=N/O)c(C)n1-c1ccc(Br)cc1`, the cell number change worked out at 31.8%. Besides, the AC50 under setting [2] is 5.8 µM [rising, partial curve]. In addition, the concentration at half-maximal activity (AC50) under setting [1] was 10.3 µM [rising, partial curve].

On to `CCOc1ccc(-c2nnc(SCC(=O)N3CCNC3=O)o2)cc1`, for which the cell number change was -15.3%. For the same molecule, the AC50 under setting [1] is 6.51 µM [falling, partial curve, poor fit].

For `O=C1N/C(=N\S(=O)(=O)c2ccccc2)S/C1=C\c1cc([N+](=O)[O-])ccc1O`, the cell number change came to 21.7%.

Regarding `O=C(Nc1cccc(NC(=S)NC(=O)c2cccs2)c1)c1ccccc1`, the cell number change is -10.4%. Further, under setting [1], the concentration at half-maximal activity (AC50) is 2.31 µM [rising, partial curve].

Consider `O=C(Cn1sc2ccccc2c1=O)NC12CC3CC(CC(C3)C1)C2`, for which the cell number change was -78.9%. Moreover, the AC50 under setting [2] is 29.1 µM [falling, single point].

On to `COCCCNC(=O)c1cc2c(s1)CS(=O)(=O)C2`, for which the cell number change came out at 1.15%.

Take `N#Cc1ccccc1OCCN1C(=O)c2ccccc2C1=O`: the cell number change was -5.83%. Also, under setting [1], the half-maximal activity concentration (AC50) is 29.1 µM [rising, single point].

With `CC(C)(C)Nc1ncnc2c1cnn2-c1ccccc1`, under setting [1], the AC50 is 0.366 µM [falling, full curve].

Turning to `CCc1ccccc1NC(=O)CNC(=O)CNC(=O)c1cccs1`, the cell number change is -9.12%.

Regarding `O=C(COC(=O)COc1ccc(Br)cc1)Nc1cccnc1Cl`, the cell number change is -12.3%. Also, under setting [1], the AC50 is 0.116 µM [falling, full curve, poor fit].

For `CCC(CC)COC(=O)C1=C(C)NC(=O)NC1c1ccccc1Br` (stereo not drawn), the cell number change was -17.5%. In addition, under setting [1], the half-maximal activity concentration (AC50) is 29.1 µM [falling, single point].
